In patent US4113714A (American Home Products Corporation, priority 1975, dated 1978) one finds crude mass data, which are given here for one substance.

HELM strings list residues between dots; [ac] is acetyl, [am] amide, other brackets name non-standard units.

A short description of the series: general procedure: Boc solid-phase peptide synthesis; Chloromethylated polystyrene resin (0.75 m moles Cl/g); diisopropylcarbodiimide; p-nitrophenyl ester for asparagine. Conditions: whole synthesis, scale 0.85 m moles, diacetate salt.

Regarding “PEPTIDE1{[Mpa].K.N.F.F.W.K.T.F.T.S.C}$PEPTIDE1,PEPTIDE1,1:R3-12:R3$$$V2.0”, the crude mass turned out to be 4.0 g.
